The supplement of paper PMC12067093, “Discovery and optimisation of a covalent ligand for TRIM25 and its application to targeted protein ubiquitination” (Chemical Science, 2025)
The other results are listed elsewhere or left out.

Amino acid sequences for entries named in this document (tags omitted). A change or cut given only in a name is not applied to a line headed by its entry.
UniProt P21291: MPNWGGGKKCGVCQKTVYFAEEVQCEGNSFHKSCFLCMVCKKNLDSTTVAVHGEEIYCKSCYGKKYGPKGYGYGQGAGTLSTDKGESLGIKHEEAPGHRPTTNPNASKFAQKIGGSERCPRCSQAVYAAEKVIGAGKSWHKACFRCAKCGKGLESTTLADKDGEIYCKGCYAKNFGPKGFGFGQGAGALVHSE
UniProt Q9P2I0: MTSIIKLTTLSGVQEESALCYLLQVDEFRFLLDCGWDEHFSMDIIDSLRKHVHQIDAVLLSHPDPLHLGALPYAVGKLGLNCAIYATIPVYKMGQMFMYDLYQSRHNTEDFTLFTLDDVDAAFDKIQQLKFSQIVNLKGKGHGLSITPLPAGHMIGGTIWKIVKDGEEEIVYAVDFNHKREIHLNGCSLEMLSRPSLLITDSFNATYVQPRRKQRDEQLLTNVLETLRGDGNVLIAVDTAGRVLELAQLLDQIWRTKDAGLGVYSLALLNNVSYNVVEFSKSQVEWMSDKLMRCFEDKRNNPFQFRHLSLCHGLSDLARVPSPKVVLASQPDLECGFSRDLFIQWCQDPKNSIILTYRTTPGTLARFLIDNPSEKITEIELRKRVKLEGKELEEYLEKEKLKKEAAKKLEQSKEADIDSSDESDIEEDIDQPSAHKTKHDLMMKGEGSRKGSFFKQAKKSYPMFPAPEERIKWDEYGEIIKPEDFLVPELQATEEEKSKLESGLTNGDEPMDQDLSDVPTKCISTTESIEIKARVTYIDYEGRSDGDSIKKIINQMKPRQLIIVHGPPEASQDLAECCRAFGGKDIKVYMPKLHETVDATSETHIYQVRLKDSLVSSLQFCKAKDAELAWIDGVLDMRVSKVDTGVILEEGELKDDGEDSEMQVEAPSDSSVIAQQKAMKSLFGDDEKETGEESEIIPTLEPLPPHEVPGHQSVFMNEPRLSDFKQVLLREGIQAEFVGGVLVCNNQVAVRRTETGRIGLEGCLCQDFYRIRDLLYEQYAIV
UniProt P31146: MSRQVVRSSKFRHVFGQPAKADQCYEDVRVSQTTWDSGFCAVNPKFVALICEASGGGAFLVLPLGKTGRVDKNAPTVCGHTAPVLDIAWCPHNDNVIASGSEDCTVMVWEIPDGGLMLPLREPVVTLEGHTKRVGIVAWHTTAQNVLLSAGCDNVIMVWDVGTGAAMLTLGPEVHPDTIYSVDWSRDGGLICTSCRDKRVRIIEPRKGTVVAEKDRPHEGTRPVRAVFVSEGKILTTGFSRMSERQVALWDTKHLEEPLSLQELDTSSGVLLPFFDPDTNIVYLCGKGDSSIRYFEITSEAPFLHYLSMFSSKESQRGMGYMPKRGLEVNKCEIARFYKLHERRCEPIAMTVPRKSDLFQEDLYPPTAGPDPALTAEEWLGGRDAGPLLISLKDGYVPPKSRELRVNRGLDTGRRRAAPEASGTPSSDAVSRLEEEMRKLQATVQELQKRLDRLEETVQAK
UniProt Q9BR76, whole entry, looked up: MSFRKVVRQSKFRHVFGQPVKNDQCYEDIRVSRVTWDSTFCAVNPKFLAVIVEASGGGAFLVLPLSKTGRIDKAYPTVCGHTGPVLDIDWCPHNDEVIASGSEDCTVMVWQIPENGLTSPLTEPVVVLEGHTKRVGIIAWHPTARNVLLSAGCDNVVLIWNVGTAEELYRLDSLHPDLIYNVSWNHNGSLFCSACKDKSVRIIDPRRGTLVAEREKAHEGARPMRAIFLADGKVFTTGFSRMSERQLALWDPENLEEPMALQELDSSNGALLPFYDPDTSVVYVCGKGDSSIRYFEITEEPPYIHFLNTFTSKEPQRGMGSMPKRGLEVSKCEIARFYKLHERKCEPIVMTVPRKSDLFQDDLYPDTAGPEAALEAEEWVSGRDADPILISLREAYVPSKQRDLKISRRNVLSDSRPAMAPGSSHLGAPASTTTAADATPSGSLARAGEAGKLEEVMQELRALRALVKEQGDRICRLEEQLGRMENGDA
UniProt Q14061: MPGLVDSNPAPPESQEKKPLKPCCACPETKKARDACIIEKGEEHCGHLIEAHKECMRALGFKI
UniProt P14854, whole entry, looked up: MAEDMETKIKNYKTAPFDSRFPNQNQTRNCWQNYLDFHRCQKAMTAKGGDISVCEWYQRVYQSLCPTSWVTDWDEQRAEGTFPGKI
UniProt Q96HD1: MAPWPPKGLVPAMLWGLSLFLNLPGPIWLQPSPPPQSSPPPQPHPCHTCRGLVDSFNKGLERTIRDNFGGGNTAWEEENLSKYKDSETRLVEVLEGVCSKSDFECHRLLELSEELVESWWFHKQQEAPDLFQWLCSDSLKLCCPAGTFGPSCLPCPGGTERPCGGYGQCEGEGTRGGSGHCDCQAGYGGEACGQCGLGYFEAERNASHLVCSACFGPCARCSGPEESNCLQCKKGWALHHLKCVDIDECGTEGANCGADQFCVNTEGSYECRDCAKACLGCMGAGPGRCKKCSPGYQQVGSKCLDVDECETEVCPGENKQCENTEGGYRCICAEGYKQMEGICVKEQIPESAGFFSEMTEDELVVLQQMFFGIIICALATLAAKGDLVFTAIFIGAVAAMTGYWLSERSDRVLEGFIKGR
UniProt P26232: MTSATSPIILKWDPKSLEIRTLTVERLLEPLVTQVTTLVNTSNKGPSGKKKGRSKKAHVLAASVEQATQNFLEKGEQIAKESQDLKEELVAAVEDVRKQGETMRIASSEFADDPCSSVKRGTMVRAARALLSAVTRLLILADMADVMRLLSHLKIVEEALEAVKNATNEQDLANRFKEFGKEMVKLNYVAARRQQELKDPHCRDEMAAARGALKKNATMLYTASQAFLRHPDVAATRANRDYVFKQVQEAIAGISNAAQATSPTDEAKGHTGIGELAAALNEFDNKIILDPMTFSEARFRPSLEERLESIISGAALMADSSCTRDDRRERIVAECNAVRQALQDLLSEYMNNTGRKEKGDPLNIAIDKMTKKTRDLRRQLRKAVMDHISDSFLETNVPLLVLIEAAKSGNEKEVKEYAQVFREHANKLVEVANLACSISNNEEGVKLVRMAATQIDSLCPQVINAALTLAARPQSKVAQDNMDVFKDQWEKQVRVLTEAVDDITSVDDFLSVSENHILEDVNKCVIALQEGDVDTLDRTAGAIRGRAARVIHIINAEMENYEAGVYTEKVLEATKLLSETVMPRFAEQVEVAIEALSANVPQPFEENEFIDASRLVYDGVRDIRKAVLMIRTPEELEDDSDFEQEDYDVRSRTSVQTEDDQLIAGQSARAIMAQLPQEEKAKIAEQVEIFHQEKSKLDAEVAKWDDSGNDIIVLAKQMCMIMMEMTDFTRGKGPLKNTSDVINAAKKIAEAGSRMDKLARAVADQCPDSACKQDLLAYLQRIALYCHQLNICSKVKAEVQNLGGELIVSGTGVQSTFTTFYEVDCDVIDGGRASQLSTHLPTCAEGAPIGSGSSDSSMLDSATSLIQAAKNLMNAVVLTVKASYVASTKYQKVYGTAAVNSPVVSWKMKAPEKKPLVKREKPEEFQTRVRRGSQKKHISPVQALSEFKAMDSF
UniProt Q9ULV4, whole entry, looked up: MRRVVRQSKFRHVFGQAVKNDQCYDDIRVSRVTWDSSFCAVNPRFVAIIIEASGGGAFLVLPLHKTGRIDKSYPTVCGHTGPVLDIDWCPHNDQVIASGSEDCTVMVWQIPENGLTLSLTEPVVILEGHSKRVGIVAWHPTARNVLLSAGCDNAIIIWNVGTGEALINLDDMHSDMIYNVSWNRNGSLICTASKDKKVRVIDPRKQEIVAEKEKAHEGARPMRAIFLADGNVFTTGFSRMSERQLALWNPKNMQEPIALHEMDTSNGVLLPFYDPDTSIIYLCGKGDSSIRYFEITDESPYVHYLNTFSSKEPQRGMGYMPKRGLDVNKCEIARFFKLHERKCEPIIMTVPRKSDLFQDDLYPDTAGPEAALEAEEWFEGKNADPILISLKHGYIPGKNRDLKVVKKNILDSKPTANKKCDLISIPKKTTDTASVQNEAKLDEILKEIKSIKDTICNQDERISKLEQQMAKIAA
UniProt O75534: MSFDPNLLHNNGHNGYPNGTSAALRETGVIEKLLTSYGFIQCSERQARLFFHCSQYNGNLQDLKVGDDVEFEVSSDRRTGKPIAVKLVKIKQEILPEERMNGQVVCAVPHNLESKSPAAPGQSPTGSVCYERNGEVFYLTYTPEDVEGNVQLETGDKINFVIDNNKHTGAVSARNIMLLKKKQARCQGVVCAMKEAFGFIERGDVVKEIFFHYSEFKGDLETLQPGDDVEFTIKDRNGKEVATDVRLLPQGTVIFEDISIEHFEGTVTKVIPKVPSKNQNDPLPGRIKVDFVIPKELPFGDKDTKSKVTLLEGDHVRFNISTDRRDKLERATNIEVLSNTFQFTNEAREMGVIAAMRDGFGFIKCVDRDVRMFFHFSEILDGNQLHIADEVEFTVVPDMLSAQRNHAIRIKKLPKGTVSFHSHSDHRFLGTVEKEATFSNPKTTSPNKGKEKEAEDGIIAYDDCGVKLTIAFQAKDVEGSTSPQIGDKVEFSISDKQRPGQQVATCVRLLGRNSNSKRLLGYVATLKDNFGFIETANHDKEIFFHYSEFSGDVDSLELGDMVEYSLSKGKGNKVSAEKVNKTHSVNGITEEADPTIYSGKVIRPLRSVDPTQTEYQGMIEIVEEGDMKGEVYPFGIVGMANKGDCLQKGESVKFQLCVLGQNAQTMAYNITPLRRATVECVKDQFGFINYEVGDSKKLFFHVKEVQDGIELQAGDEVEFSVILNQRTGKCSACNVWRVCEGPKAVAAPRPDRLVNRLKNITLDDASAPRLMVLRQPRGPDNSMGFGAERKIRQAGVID
UniProt P41240: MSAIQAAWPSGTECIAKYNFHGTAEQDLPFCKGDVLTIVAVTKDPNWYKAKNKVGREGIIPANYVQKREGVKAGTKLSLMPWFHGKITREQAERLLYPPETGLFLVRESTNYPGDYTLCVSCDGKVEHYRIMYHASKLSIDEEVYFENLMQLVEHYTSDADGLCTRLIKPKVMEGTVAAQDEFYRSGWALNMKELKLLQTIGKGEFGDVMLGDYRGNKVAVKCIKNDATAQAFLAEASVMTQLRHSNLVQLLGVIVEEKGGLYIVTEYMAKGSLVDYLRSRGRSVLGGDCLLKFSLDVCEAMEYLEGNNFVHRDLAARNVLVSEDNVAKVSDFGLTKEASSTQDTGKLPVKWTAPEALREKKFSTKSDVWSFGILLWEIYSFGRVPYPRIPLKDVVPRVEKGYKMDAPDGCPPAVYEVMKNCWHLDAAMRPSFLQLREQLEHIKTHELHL
UniProt Q9UBT7: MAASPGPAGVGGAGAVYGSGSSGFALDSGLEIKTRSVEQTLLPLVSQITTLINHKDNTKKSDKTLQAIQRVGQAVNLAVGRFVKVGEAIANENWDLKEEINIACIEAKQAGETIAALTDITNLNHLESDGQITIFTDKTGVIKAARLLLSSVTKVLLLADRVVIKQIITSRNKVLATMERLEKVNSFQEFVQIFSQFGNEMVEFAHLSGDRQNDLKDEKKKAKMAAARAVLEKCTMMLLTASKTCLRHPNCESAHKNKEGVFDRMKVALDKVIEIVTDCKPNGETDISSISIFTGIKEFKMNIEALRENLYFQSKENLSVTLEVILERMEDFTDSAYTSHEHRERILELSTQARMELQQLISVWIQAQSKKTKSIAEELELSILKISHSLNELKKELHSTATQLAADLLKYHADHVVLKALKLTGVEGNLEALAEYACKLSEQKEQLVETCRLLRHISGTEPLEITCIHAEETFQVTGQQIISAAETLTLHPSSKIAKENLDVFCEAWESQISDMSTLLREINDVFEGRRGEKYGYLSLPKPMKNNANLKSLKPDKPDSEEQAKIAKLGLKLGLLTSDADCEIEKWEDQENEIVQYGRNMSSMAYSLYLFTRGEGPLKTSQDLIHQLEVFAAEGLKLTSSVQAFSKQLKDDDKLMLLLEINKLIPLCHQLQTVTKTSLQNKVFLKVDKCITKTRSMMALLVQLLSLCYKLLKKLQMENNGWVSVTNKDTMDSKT
UniProt Q9H0L4: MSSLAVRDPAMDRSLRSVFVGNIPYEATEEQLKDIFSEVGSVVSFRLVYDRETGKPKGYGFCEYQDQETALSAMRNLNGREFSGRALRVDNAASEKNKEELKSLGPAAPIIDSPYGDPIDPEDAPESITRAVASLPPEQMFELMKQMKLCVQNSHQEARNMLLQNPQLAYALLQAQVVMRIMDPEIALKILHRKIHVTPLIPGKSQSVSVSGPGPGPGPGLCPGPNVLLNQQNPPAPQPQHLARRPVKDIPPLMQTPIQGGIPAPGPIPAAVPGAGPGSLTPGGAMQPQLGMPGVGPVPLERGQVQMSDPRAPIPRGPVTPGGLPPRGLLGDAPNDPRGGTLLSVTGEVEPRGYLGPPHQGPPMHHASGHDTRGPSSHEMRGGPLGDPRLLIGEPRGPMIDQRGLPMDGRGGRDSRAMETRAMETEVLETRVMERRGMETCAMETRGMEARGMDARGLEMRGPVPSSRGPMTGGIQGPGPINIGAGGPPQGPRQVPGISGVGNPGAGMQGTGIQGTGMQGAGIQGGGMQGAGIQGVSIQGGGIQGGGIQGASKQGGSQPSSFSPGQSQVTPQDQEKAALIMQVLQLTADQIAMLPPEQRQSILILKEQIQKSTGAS

Compound: CC1Cc2ccccc2N1C(=O)C1CCCN(C1)C(=O)CCl (mixture of isomers) [TRIM25 ligand 11 (diastereomer mixture)]
Test: probe-labelled cysteine peptide fold change vs DMSO (competition) (log2 fold change); higher = less target engagement (more negative = stronger competition)
Conditions: THP-1, incubation time: 4 h
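Also: competitive chemoproteomic profiling in live THP-1 cells with an iodoacetamide desthiobiotin (IA-DTB) probe, comparing probe-labelled peptide intensities in compound-treated cells against DMSO-treated controls.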

| Target | probe-labelled cysteine peptide fold change (10 µM) | probe-labelled cysteine peptide fold change (50 µM) |
| --- | --- | --- |
| CSNK1A1_P48729_249_MSTPVEVLCK (UniProt P48729) | -0.305 | -0.401 |
| CSRP1_P21291_58_NLDSTTVAVHGEEIYCK (UniProt P21291) | 0.119 | 0.0779 |
| CORO7_P57737_790_TECDVR (UniProt P57737) | -0.0371 | 0.0187 |
| CTCF_P49711_299_CHLCGR (UniProt P49711) | 0.0219 | 0.0588 |
| CRELD2_Q6UXH1_166_QGDGSCR (UniProt Q6UXH1) | 0.14 | 0.183 |
| CSRP1_P21291_34_SCFLCMVCK (UniProt P21291) | 0.0696 | 0.11 |
| CPSF2_Q9P2I0_335_VVLASQPDLECGFSR (UniProt Q9P2I0) | -0.0499 | 0.0252 |
| CORO1A_P31146_345_RCEPIAMTVPR (UniProt P31146) | -0.109 | -0.0695 |
| CSRP1_P21291_40_SCFLCMVCK (UniProt P21291) | 0.0125 | 0.144 |
| CORO1B_Q9BR76_41_VTWDSTFCAVNPK (UniProt Q9BR76) | -0.0723 | 0.0234 |
| COX17_Q14061_45_GEEHCGHLIEAHK (UniProt Q14061) | -0.188 | -0.0542 |
| COX6B1_P14854_30_NCWQNYLDFHR (UniProt P14854) | -0.0828 | -0.0345 |
| CTDSPL_O15194_197_ESCVFHR (UniProt O15194) | 0.071 | 0.134 |
| CRELD1_Q96HD1_135_QQEAPDLFQWLCSDSLK (UniProt Q96HD1) | 0.141 | 0.167 |
| CTNNA2_P26232_322_LESIISGAALMADSSCTR (UniProt P26232) | 0.16 | -0.132 |
| CRELD1_Q96HD1_105_SDFECHR (UniProt Q96HD1) | 0.122 | 0.424 |
| CRYBG3_Q68DQ2_439_EELVEPQGPAISDFSCSK (UniProt Q68DQ2) | -0.0652 | -0.0273 |
| CRYZ_Q08257_145_ALIHSACVK (UniProt Q08257) | 0.0688 | 0.0591 |
| CPSF2_Q9P2I0_20_LTTLSGVQEESALCYLLQVDEFR (UniProt Q9P2I0) | -0.0527 | -0.0601 |
| CSE1L_P55060_939_LSTACPGR (UniProt P55060) | 0.0647 | 0.108 |
| CTNND1_O60716_516_MEIVDHALHALTDEVIIPHSGWEREPNEDCKPR (UniProt O60716) | -0.0213 | -0.157 |
| CORO1C_Q9ULV4_190_NGSLICTASK (UniProt Q9ULV4) | -0.00932 | 0.131 |

| Target | probe-labelled cysteine peptide fold change (10 µM) | probe-labelled cysteine peptide fold change (50 µM) |
| --- | --- | --- |
| CREBBP_Q92793_1212_KYEFSPQTLCCYGK (UniProt Q92793) | -0.0659 | -0.0288 |
| CSDE1_O75534_42_LLTSYGFIQCSER (UniProt O75534) | -0.0145 | 0.0173 |
| CTBP2_P56545_60_DLATVAFCDAQSTQEIHEK (UniProt P56545) | -0.0351 | 0.0026 |
| CTBP1_Q13363_54_DVATVAFCDAQSTQEIHEK (UniProt Q13363) | -0.0987 | -0.00903 |
| CPSF4_O95639_82_KGDQCEFLHEYDMTK (UniProt O95639) | 0.0614 | -0.239 |
| CTDP1_Q9Y5B0_277_DECIDPFSK (UniProt Q9Y5B0) | 0.0916 | -0.121 |
| CORO1C_Q9ULV4_420_CDLISIPK (UniProt Q9ULV4) | -0.212 | -0.227 |
| CSRP1_P21291_25_TVYFAEEVQCEGNSFHK (UniProt P21291) | 0.153 | -0.0744 |
| CSK_P41240_31_YNFHGTAEQDLPFCK (UniProt P41240) | -0.0157 | -0.122 |
| CTNND1_O60716_533_HIEWESVLTNTAGCLR (UniProt O60716) | -0.0166 | -0.228 |
| CTNNAL1_Q9UBT7_104_EEINIACIEAK (UniProt Q9UBT7) | -0.0933 | 0.172 |
| CSTF2T_Q9H0L4_441_GMETCAMETR (UniProt Q9H0L4) | -0.0822 | -0.124 |
| CSDE1_O75534_186_CQGVVCAMK (UniProt O75534) | -0.0611 | -0.156 |
| CPVL_Q9H3G5_271_QCHECIEHIR (UniProt Q9H3G5) | 0.11 | 0.292 |
| CTNNA2_P26232_792_IALYCHQLNICSK (UniProt P26232) | -0.0111 | 0.118 |
| CTBS_Q01459_281_GAPCSDAAGR (UniProt Q01459) | -0.0997 | -0.105 |
| CSDE1_O75534_680_ATVECVK (UniProt O75534) | 0.0785 | 0.231 |
| CTNNB1_P35222_520_NLALCPANHAPLR (UniProt P35222) | -0.176 | 0.273 |
| CSK_P41240_164_LSIDEEVYFENLMQLVEHYTSDADGLCTR (UniProt P41240) | -0.227 | -0.228 |
| CRYZL1_O95825_177_VISTACSLEDK (UniProt O95825) | 0.0726 | 0.107 |
| CROT_Q9UKG9_166_MLFSTCK (UniProt Q9UKG9) | 0.00234 | 0.0419 |

Record cards (already shown).
COX17_Q14061_45_GEEHCGHLIEAHK (UniProt Q14061) in the list: probe-labelled cysteine peptide fold change (10 µM): -0.188; probe-labelled cysteine peptide fold change (50 µM): -0.0542
CPSF2_Q9P2I0_20_LTTLSGVQEESALCYLLQVDEFR (UniProt Q9P2I0) in the list: probe-labelled cysteine peptide fold change (10 µM): -0.0527; probe-labelled cysteine peptide fold change (50 µM): -0.0601
CORO1B_Q9BR76_41_VTWDSTFCAVNPK (UniProt Q9BR76) in the list: probe-labelled cysteine peptide fold change (10 µM): -0.0723; probe-labelled cysteine peptide fold change (50 µM): 0.0234
